According to the supplement of paper PMC10849652:
The other results are listed elsewhere or left out.

By UniProt entry, the sequences of proteins in these tests, tags left out. Where a name states a change or a piece, a line headed by the entry shows the natural chain unless it says otherwise.
UniProt P54578: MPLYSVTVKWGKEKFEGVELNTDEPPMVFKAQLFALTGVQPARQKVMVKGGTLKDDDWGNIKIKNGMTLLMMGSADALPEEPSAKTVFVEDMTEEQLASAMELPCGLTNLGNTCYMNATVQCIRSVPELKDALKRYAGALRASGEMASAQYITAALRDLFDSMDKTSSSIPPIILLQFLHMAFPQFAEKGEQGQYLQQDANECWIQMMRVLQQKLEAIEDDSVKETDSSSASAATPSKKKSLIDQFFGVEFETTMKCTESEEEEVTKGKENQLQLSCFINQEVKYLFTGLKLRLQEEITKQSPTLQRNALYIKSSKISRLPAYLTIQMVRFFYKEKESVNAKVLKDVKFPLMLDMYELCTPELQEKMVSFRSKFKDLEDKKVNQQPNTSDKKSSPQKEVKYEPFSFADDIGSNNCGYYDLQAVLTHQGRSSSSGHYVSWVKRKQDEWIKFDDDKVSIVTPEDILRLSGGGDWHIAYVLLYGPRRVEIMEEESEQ
UniProt Q70J99: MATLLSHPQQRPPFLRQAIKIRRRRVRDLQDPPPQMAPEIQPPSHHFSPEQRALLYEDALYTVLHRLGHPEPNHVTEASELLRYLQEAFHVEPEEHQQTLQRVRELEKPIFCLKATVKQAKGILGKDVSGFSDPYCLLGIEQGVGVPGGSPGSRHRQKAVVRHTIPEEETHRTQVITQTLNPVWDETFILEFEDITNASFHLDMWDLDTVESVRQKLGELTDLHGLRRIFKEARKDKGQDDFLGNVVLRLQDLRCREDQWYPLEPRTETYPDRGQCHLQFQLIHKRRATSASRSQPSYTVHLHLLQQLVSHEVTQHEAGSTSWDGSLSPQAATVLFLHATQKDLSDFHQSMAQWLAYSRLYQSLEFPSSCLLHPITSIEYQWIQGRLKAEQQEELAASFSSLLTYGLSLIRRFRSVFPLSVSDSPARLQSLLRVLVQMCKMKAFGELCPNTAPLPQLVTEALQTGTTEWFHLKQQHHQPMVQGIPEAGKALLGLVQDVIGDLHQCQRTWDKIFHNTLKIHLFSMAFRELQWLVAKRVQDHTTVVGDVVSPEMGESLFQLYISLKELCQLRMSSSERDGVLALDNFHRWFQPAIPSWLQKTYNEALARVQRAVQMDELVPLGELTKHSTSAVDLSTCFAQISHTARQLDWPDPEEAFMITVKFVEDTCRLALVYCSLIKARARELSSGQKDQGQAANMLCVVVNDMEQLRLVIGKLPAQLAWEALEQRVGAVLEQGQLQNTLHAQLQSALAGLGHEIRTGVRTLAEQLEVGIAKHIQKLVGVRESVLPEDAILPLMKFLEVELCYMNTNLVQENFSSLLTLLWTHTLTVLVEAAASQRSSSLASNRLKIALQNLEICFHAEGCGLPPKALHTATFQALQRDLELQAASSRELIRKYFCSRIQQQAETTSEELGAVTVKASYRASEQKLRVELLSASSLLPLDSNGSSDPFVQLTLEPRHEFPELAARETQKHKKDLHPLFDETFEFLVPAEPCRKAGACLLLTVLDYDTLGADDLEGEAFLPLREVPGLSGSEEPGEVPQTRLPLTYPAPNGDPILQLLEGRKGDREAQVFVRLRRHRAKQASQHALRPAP
UniProt Q9P0L0: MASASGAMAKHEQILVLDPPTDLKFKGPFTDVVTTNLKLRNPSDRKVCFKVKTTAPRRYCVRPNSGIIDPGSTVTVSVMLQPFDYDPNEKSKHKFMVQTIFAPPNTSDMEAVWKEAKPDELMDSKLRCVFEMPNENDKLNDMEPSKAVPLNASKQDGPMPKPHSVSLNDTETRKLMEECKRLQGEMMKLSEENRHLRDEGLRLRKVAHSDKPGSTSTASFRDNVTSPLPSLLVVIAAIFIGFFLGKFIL
UniProt Q53GS9: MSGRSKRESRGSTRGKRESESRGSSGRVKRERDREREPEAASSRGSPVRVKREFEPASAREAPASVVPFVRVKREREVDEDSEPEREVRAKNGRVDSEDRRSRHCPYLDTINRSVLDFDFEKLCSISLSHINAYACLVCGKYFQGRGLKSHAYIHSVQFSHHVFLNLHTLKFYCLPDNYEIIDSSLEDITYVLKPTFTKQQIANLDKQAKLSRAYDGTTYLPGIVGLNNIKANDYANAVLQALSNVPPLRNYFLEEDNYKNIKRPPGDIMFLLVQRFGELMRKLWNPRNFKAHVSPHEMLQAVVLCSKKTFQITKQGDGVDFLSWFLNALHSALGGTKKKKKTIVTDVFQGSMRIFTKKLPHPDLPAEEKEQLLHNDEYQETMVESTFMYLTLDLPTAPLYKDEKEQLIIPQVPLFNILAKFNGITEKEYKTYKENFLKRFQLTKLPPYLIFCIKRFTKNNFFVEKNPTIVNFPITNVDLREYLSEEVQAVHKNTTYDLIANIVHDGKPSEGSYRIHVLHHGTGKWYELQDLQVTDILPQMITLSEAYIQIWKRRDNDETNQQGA
UniProt O75691: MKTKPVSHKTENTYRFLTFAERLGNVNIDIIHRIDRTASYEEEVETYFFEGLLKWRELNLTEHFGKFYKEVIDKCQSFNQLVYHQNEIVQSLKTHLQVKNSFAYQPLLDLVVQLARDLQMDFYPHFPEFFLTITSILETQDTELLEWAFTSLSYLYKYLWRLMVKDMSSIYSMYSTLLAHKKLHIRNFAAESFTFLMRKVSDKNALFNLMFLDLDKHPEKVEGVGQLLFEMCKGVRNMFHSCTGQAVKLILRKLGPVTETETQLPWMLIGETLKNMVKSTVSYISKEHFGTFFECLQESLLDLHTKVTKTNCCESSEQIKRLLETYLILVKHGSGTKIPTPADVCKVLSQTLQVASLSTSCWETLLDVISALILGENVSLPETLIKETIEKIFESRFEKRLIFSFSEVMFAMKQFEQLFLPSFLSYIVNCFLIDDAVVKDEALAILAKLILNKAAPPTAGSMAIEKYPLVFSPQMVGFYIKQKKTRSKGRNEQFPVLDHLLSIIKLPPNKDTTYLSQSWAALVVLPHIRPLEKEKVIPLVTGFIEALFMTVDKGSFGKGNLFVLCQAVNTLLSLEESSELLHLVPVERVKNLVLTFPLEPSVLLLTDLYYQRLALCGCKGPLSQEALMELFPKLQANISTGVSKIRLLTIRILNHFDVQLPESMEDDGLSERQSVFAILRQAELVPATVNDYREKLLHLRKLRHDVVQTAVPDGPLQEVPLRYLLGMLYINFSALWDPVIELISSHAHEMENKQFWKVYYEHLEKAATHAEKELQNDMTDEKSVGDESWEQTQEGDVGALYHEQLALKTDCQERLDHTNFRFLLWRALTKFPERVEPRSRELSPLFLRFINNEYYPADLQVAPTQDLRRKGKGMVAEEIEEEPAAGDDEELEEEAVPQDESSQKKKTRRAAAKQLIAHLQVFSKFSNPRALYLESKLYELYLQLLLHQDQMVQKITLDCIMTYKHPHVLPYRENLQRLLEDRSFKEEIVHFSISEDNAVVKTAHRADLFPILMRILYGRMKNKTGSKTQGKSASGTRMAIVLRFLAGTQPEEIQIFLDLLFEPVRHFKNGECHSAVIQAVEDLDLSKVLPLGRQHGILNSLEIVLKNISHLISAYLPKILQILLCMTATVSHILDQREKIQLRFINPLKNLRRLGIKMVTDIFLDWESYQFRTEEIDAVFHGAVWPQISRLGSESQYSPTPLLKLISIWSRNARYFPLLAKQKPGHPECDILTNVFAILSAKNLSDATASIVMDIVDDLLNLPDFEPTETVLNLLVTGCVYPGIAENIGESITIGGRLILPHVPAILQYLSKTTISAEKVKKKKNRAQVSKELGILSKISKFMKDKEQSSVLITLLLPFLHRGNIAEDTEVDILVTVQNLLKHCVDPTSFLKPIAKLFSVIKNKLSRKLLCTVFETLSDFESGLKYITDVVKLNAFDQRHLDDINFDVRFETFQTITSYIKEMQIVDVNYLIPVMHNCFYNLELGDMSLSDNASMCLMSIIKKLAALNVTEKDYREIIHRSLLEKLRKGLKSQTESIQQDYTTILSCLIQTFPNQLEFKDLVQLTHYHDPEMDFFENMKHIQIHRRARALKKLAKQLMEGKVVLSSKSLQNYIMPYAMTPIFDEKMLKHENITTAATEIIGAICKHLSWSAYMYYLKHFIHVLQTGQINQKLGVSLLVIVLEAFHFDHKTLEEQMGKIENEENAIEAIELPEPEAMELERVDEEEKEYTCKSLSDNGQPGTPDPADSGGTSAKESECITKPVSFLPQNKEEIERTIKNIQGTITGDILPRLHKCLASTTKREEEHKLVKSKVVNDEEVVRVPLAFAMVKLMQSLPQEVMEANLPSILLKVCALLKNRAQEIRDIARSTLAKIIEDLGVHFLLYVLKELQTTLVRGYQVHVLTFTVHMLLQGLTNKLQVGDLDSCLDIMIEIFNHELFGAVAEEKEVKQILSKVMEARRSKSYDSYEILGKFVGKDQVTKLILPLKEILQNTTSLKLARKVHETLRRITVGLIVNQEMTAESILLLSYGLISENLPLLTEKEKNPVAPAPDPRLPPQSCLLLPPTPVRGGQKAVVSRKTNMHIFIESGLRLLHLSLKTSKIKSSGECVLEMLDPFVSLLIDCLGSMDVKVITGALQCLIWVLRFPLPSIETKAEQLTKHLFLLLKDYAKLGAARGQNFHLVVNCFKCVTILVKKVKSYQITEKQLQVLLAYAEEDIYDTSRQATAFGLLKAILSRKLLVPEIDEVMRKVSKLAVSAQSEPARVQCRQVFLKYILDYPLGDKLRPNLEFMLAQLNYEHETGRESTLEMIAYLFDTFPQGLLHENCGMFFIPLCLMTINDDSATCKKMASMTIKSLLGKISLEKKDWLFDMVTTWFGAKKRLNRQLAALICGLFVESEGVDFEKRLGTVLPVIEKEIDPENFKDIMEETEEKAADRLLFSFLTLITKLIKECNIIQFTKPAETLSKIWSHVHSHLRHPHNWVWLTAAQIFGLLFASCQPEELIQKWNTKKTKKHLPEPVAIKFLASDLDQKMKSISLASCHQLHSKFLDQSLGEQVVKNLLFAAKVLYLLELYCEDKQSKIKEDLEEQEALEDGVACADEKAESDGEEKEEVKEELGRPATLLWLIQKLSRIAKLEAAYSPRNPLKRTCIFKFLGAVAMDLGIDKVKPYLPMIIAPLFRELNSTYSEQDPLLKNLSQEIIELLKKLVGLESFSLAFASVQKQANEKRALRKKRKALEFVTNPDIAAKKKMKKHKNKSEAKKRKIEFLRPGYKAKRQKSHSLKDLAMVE
UniProt Q96JH7: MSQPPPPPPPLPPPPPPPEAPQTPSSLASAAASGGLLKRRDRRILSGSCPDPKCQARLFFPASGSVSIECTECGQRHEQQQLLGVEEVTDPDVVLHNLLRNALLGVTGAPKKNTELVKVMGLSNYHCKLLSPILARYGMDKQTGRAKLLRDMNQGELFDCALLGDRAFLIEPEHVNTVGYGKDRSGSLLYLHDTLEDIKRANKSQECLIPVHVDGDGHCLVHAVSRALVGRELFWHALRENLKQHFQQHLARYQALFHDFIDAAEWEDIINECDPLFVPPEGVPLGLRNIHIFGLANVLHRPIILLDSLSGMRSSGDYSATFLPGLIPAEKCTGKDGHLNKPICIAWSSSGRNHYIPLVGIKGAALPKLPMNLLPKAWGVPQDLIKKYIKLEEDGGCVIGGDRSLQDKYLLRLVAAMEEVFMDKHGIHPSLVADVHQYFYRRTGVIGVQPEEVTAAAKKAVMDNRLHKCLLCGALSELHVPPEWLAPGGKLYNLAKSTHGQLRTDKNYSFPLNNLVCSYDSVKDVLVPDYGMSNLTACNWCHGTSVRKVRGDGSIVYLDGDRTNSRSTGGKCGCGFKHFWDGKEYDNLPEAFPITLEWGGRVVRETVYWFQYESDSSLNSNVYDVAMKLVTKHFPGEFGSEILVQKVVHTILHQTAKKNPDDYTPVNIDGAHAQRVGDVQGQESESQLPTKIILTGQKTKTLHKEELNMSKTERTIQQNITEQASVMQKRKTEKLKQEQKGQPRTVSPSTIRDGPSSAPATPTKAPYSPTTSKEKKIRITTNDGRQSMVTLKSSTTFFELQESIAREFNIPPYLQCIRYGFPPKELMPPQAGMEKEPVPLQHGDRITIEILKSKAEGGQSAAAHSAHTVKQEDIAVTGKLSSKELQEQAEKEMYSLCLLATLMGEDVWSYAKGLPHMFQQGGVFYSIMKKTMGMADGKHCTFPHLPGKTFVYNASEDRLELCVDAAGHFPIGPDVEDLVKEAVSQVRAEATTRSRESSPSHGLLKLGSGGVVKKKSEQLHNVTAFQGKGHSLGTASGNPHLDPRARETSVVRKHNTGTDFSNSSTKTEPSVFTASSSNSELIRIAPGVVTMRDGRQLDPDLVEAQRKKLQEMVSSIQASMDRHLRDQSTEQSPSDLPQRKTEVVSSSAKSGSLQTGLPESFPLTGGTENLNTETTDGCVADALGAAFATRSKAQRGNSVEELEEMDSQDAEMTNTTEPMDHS
UniProt Q9BRT2: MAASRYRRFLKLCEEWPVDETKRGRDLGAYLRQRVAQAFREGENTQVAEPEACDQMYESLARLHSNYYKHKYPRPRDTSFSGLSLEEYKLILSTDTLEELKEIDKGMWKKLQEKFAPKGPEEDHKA

Key:
Experiment in all cases: log2 fold change, soluble protein after heating vs DMSO (PISA); higher = thermal stabilisation; K562 lysate, 10 uM; active = over 0.2 and 3.5 SD of the protein, either way, in both replicates (recomputed)
ibrutinib = compound: C=CC(=O)N1CCC[C@@H](n2nc(-c3ccc(Oc4ccccc4)cc3)c3c(N)ncnc32)C1 [ibrutinib]
Procedure, shortened: (§1)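 Log-two fold change in thermal stability relative to solvent controls is reported from duplicates. For each sample, crude K562 extract from dounce-homogenised pellets in PBS pH 7.4 with 1 mM MgCl2, at 1 mg/mL protein, was treated with 10 μM compound for 30 min. Aliquots heated for 3 min across 48°C-58°C were pooled, brought to 0.5% NP-40 at 4°C and cleared at 21,000xg for 90 min. The supernatant was quantified by TMTpro 16plex LC-MS/MS with channel sums equalised.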

[1] = compound: CC(=O)c1cnc2ccc(-c3cc(Cl)c(O)c(Cl)c3)nc2c1N[C@H]1CC[C@H](CN(C)C)CC1
Procedure, shortened: as §1

ralimetinib = compound: CC(C)(C)Cn1c(N)nc2ccc(-c3[nH]c(C(C)(C)C)nc3-c3ccc(F)cc3)nc21 [ralimetinib]
Procedure, shortened: as §1

[2] = compound: CC(C)(O)CC(=O)NCCn1ccc2ncnc(Nc3ccc(Oc4cccc(C(F)(F)F)c4)c(Cl)c3)c21
Procedure, shortened: as §1

[3] = compound: CC(C)C1=C2N=C(C=C(N2N=C1)NCC3=CC=CC=C3)NCCCCCCN
Procedure, shortened: as §1

[4] = compound: CC1=C(C(CC(=O)N1)C2=CC=C(C=C2)C(F)(F)F)C(=O)NC3=C(C=C4C(=C3)C=NN4)F
Procedure, shortened: as §1

[5] = compound: CC1=C(C2=C(C=C1)C(=O)C3=CC=CC=C3N2CCCN)C
Procedure, shortened: as §1

[6] = compound: CC1=C(C=C(C=C1)NC(=O)C2=CC(=CC=C2)C(C)(C)C#N)NC3=CC4=C(C=C3)N=CN(C4=O)C
Procedure, shortened: as §1

[7] = compound: CC1=C(C=C(C=C1)NC(=O)C2=CC(=CC=C2)N(C)C)NC(=O)C3=CC=C(C=C3)O
Procedure, shortened: as §1

[8] = compound: CC1=CC=C(C=C1)SC2=C3C=C(SC3=CN=C2)C(=O)N
Procedure, shortened: as §1

vemurafenib = compound: CCCS(=O)(=O)Nc1ccc(F)c(C(=O)c2c[nH]c3ncc(-c4ccc(Cl)cc4)cc23)c1F [vemurafenib]
Procedure, shortened: as §1

[9] = compound: CCCS(=O)(=O)Nc1ccc(F)c(C(=O)c2c[nH]c3ncc(Cl)cc23)c1F
Procedure, shortened: as §1

barasertib = compound: CCN(CCCOc1ccc2c(Nc3cc(CC(=O)Nc4cccc(F)c4)[nH]n3)ncnc2c1)CCOP(=O)(O)O [barasertib]
Procedure, shortened: as §1

[10] = compound: CC[C@@H]1C(=O)N(C)c2cnc(Nc3ccc(C(=O)NC4CCN(C)CC4)cc3OC)nc2N1C1CCCC1
Procedure, shortened: as §1

volasertib = compound: CC[C@@H]1C(=O)N(C)c2cnc(Nc3ccc(C(=O)N[C@H]4CC[C@H](N5CCN(CC6CC6)CC5)CC4)cc3OC)nc2N1C(C)C [volasertib]
Procedure, shortened: as §1

[11] = compound: CCn1c(C(=O)N(C2CC2)C2CC2)cc2c3c(ncn3C)c(Nc3cc(C)n(C)n3)nc21
Procedure, shortened: as §1

[12] = compound: CCn1cc(-c2ccnc3[nH]c(-c4cccc(CN(C)C)c4)cc23)c(-c2ccc(NC(=O)N(C)C)cc2)n1
Procedure, shortened: as §1

[13] = compound: CN1CCC(CNc2ccc3ncc(-c4cccc(OC(F)(F)F)c4)n3n2)CC1
Procedure, shortened: as §1

saracatinib = compound: CN1CCN(CCOc2cc(OC3CCOCC3)c3c(Nc4c(Cl)ccc5c4OCO5)ncnc3c2)CC1 [saracatinib]
Procedure, shortened: as §1

sotrastaurin = compound: CN1CCN(c2nc(C3=C(c4c[nH]c5ccccc45)C(=O)NC3=O)c3ccccc3n2)CC1 [sotrastaurin]
Procedure, shortened: as §1

Measured: log2 fold change

VAMP8 (UniProt Q9BV40)
inactive: ibrutinib 0.067 | [1] -0.035 | ralimetinib -0.004 | [2] -0.053 | [3] -0.012 | [4] -0.016 | [5] -0.035 | [6] 0.016 | [7] -0.011 | [8] 0.003 | vemurafenib -0.003 | [9] -0.008 | barasertib 0.064 | [10] 0.035 | volasertib 0.047 | [11] -0.013 | [12] 0.014 | [13] 0 | saracatinib -0.01 | sotrastaurin 0.019

USF1 (UniProt P22415)
inactive: ibrutinib 0.052 | [1] 0.005 | ralimetinib 0.12 | [2] 0.06 | [3] -0.007 | [4] 0.065 | [5] -0.059 | [6] -0.043 | [7] -0.089 | [8] -0.019 | vemurafenib -0.075 | [9] 0.064 | barasertib 0.042 | [10] 0.053 | volasertib 0.074 | [11] 0.194 | [12] -0.029 | [13] 0.008 | saracatinib 0.014 | sotrastaurin 0.03

USP14 (UniProt P54578)
inactive: ibrutinib 0.002 | [1] -0.003 | ralimetinib -0.024 | [2] -0.014 | [3] 0.008 | [4] -0.017 | [5] 0.001 | [6] -0.008 | [7] -0.001 | [8] -0.01 | vemurafenib 0.017 | [9] 0.003 | barasertib -0.005 | [10] 0.008 | volasertib -0.015 | [11] 0.002 | [12] 0.102 | [13] -0.03 | saracatinib -0.004 | sotrastaurin -0.018

UNC13D (UniProt Q70J99)
inactive: ibrutinib -0.043 | [1] -0.005 | ralimetinib 0.031 | [2] -0.014 | [3] 0.018 | [4] 0.016 | [5] 0.015 | [6] 0.012 | [7] 0.025 | [8] -0.015 | vemurafenib 0.039 | [9] 0.027 | barasertib 0.024 | [10] -0.073 | volasertib -0.083 | [11] 0.012 | [12] 0.026 | [13] -0.015 | saracatinib 0.05 | sotrastaurin -0.022

VAPA isoform 2 (UniProt Q9P0L0)
inactive: ibrutinib 0.01 | [1] -0.008 | ralimetinib -0.014 | [2] 0 | [3] -0.009 | [4] 0.014 | [5] 0.011 | [6] 0.023 | [7] -0.022 | [8] -0.035 | vemurafenib 0.004 | [9] -0.017 | barasertib -0.037 | [10] 0.078 | volasertib 0.025 | [11] -0.004 | [12] -0.194 | [13] 0.166 | saracatinib -0.02 | sotrastaurin 0.008

USP39 (UniProt Q53GS9)
inactive: ibrutinib -0.023 | [1] -0.009 | ralimetinib 0.025 | [2] -0.046 | [3] 0.011 | [4] -0.013 | [5] 0.03 | [6] 0 | [7] 0.021 | [8] -0.009 | vemurafenib 0.017 | [9] 0.017 | barasertib -0.005 | [10] -0.024 | volasertib 0.004 | [11] 0.01 | [12] -0.011 | [13] -0.049 | saracatinib 0.004 | sotrastaurin -0.012

UTP20 (UniProt O75691)
inactive: ibrutinib 0.017 | [1] 0 | ralimetinib -0.01 | [2] 0.03 | [3] -0.002 | [4] -0.017 | [5] -0.053 | [6] -0.042 | [7] 0 | [8] 0.018 | vemurafenib -0.144 | [9] 0.028 | barasertib -0.029 | [10] -0.082 | volasertib -0.026 | [11] -0.02 | [12] 0.032 | [13] -0.096 | saracatinib 0.034 | sotrastaurin 0.018

VCPIP1 (UniProt Q96JH7)
inactive: ibrutinib 0.002 | [1] 0.01 | ralimetinib 0.009 | [2] 0.011 | [3] -0.029 | [4] -0.021 | [5] -0.05 | [6] -0.007 | [7] 0.048 | [8] -0.017 | vemurafenib 0.008 | [9] -0.04 | barasertib 0.051 | [10] -0.006 | volasertib -0.047 | [11] 0.011 | [12] -0.12 | [13] 0.049 | saracatinib -0.03 | sotrastaurin 0.035

USP19 isoform 6 (UniProt O94966)
inactive: ibrutinib 0.016 | [1] 0 | ralimetinib 0.023 | [2] -0.042 | [3] -0.003 | [4] 0.015 | [5] 0.009 | [6] -0.008 | [7] -0.015 | [8] -0.001 | vemurafenib 0.028 | [9] 0.028 | barasertib 0.023 | [10] 0.025 | volasertib -0.028 | [11] -0.011 | [12] -0.017 | [13] 0 | saracatinib 0.003 | sotrastaurin -0.006

USP32 (UniProt Q8NFA0)
inactive: ibrutinib -0.035 | [1] 0.014 | ralimetinib 0.005 | [2] -0.026 | [3] -0.041 | [4] -0.045 | [5] 0.017 | [6] 0.002 | [7] 0.052 | [8] 0.006 | vemurafenib 0.066 | [9] 0.058 | barasertib 0.166 | [10] 0.001 | volasertib -0.072 | [11] -0.004 | [12] 0.078 | [13] -0.001 | saracatinib 0.02 | sotrastaurin 0.003

UGDH (UniProt O60701)
active: [5] 0.215
inactive: ibrutinib 0.02 | [1] 0.02 | ralimetinib 0.085 | [2] -0.004 | [3] -0.004 | [4] 0.019 | [6] -0.037 | [7] 0.058 | [8] 0.031 | vemurafenib 0.008 | [9] 0.017 | barasertib -0.003 | [10] -0.062 | volasertib -0.045 | [11] 0.011 | [12] -0.028 | [13] -0.021 | saracatinib 0.187 | sotrastaurin 0.003

USP4 (UniProt Q13107)
inactive: ibrutinib 0.012 | [1] 0.023 | ralimetinib 0.018 | [2] 0.028 | [3] -0.043 | [4] 0.019 | [5] 0.006 | [6] 0.007 | [7] 0.029 | [8] 0 | vemurafenib 0.026 | [9] 0.048 | barasertib 0.015 | [10] -0.018 | volasertib -0.042 | [11] 0.051 | [12] -0.045 | [13] -0.052 | saracatinib -0.003 | sotrastaurin 0.068

UQCC2 (UniProt Q9BRT2)
inactive: ibrutinib 0.054 | [1] 0 | ralimetinib 0.006 | [2] 0.01 | [3] 0.018 | [4] -0.022 | [5] 0.016 | [6] 0.007 | [7] -0.016 | [8] -0.012 | vemurafenib -0.074 | [9] 0.005 | barasertib -0.039 | [10] -0.013 | volasertib 0.039 | [11] -0.039 | [13] -0.086 | saracatinib -0.04 | sotrastaurin -0.083
active: [12] 0.287

UROS (UniProt P10746)
inactive: ibrutinib 0.008 | [1] 0.033 | ralimetinib -0.01 | [2] 0.019 | [3] 0 | [4] -0.013 | [5] 0.003 | [6] -0.029 | [7] -0.008 | [8] 0.023 | vemurafenib -0.024 | [9] -0.002 | barasertib 0.057 | [10] -0.056 | volasertib -0.05 | [11] 0.05 | [12] 0.061 | [13] -0.021 | saracatinib -0.008 | sotrastaurin -0.023

UGGT2 (UniProt Q9NYU1)
inactive: ibrutinib 0.068 | [1] -0.04 | ralimetinib 0.04 | [2] 0.004 | [3] -0.031 | [4] 0.079 | [5] -0.027 | [6] -0.01 | [7] 0.017 | [8] 0.015 | vemurafenib -0.144 | [9] -0.011 | barasertib -0.099 | [10] 0.046 | volasertib -0.025 | [11] 0.008 | [12] 0.057 | [13] 0.018 | saracatinib 0.021 | sotrastaurin 0.08

USO1 isoform 2 (UniProt O60763)
inactive: ibrutinib -0.018 | [1] -0.009 | ralimetinib 0.009 | [2] -0.028 | [3] -0.034 | [4] -0.001 | [5] -0.005 | [6] 0.024 | [7] 0.004 | [8] 0 | vemurafenib -0.007 | [9] -0.017 | barasertib -0.008 | [10] 0.018 | volasertib 0.012 | [11] -0.011 | [12] 0.007 | [13] -0.007 | saracatinib -0.005 | sotrastaurin 0.018
